Assay results: doi:10.1101/2025.10.17.25337589
These are yes or no findings as the source states them, for the method shown. In cells and extracts the contact can be indirect. Some entries that bind do so weakly or less than the wild type. For part of these data: Sequences can lack the tags named with a protein.

T1: HA-tagged human RBMX p.R381* (human) (UniProt P38159)
T1 sequence: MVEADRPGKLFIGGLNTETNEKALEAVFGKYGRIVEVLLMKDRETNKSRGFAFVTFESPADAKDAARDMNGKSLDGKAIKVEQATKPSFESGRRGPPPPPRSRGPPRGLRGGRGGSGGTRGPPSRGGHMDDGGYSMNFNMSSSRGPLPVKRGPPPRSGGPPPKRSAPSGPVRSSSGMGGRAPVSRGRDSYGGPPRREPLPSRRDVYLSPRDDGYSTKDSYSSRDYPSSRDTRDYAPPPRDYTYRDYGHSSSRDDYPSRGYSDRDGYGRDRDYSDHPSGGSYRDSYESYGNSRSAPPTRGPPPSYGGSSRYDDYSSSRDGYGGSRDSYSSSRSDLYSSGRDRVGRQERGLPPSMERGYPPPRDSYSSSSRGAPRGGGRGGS

B1: HNRNPDL (protein, UniProt O14979 1-420)
chain: MEVPPRLSHVPPPLFPSAPATLASRSLSHWRPRPPRQLAPLLPSLAPSSARQGARRAQRHVTAQQPSRLAGGAAIKGGRRRRPDLFRRHFKSSSIQRSAAAAAATRTARQHPPADSSVTMEDMNEYSNIEEFAEGSKINASKNQQDDGKMFIGGLSWDTSKKDLTEYLSRFGEVVDCTIKTDPVTGRSRGFGFVLFKDAASVDKVLELKEHKLDGKLIDPKRAKALKGKEPPKKVFVGGLSPDTSEEQIKEYFGAFGEIENIELPMDTKTNERRGFCFITYTDEEPVKKLLESRYHQIGSGKCEIKVAQPKEVYRQQQQQQKGGRGAAAGGRGGTRGRGRGQGQNWNQGFNNYYDQGYGNYNSAYGGDQNYSGYGGYDYTGYNYGNYGYGQGYADYSGQQSTYGKASRGGGNHQNNYQPY
B2: MATR3 (protein, UniProt P43243 1-847)
chain: MSKSFQQSSLSRDSQGHGRDLSAAGIGLLAAATQSLSMPASLGRMNQGTARLASLMNLGMSSSLNQQGAHSALSSASTSSHNLQSIFNIGSRGPLPLSSQHRGDADQASNILASFGLSARDLDELSRYPEDKITPENLPQILLQLKRRRTEEGPTLSYGRDGRSATREPPYRVPRDDWEEKRHFRRDSFDDRGPSLNPVLDYDHGSRSQESGYYDRMDYEDDRLRDGERCRDDSFFGETSHNYHKFDSEYERMGRGPGPLQERSLFEKKRGAPPSSNIEDFHGLLPKGYPHLCSICDLPVHSNKEWSQHINGASHSRRCQLLLEIYPEWNPDNDTGHTMGDPFMLQQSTNPAPGILGPPPPSFHLGGPAVGPRGNLGAGNGNLQGPRHMQKGRVETSRVVHIMDFQRGKNLRYQLLQLVEPFGVISNHLILNKINEAFIEMATTEDAQAAVDYYTTTPALVFGKPVRVHLSQKYKRIKKPEGKPDQKFDQKQELGRVIHLSNLPHSGYSDSAVLKLAEPYGKIKNYILMRMKSQAFIEMETREDAMAMVDHCLKKALWFQGRCVKVDLSEKYKKLVLRIPNRGIDLLKKDKSRKRSYSPDGKESPSDKKSKTDGSQKTESSTEGKEQEEKSGEDGEKDTKDDQTEQEPNMLLESEDELLVDEEEAAALLESGSSVGDETDLANLGDVASDGKKEPSDKAVKKDGSASAAAKKKLKKVDKIEELDQENEAALENGIKNEENTEPGAESSENADDPNKDTSENADGQSDENKDDYTIPDEYRIGPYQPNVPVGIDYVIPKTGFYCKLCSLFYTNEEVAKNTHCSSLPHYQKLKKFLNKLAEERRQKKET
B3: TRA2B (protein, UniProt P62995 1-288)
chain: MSDSGEQNYGERESRSASRSGSAHGSGKSARHTPARSRSKEDSRRSRSKSRSRSESRSRSRRSSRRHYTRSRSRSRSHRRSRSRSYSRDYRRRHSHSHSPMSTRRRHVGNRANPDPNCCLGVFGLSLYTTERDLREVFSKYGPIADVSIVYDQQSRRSRGFAFVYFENVDDAKEAKERANGMELDGRRIRVDFSITKRPHTPTPGIYMGRPTYGSSRRRDYYDRGYDRGYDDRDYYSRSYRGGGGGGGGWRAAQDRDQIYRRRSPSPYYSRGGYRSRSRSRSYSPRRY
B4: SRSF7 (protein, UniProt Q16629 1-238)
chain: MSRYGRYGGETKVYVGNLGTGAGKGELERAFSYYGPLRTVWIARNPPGFAFVEFEDPRDAEDAVRGLDGKVICGSRVRVELSTGMPRRSRFDRPPARRPFDPNDRCYECGEKGHYAYDCHRYSRRRRSRSRSRSHSRSRGRRYSRSRSRSRGRRSRSASPRRSRSISLRRSRSASLRRSRSGSIKGSRYFQSPSRSRSRSRSISRPRSSRSKSRSPSPKRSRSPSGSPRRSASPERMD

How the values were obtained:
Assay in all cases: co-IP
[1] = target: T1, HA-tagged human RBMX p.R381* (human)
[2] = target: HA-tagged wild-type human RBMX (human) (UniProt P38159)
[3] = target: HA-tagged wild-type human RBMXL1 (human) (UniProt Q96E39)

Binder	binding [1]	binding [2]	binding [3]
B1	binds	binds	binds
B2			binds
B3			binds
B4			binds
